Measurements reported in PubChem BioAssay AID504804 (Drosophila RNAi Screening Center, 2011).

Test: 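Fly genes whose loss lessens doxorubicin-driven cell death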 (primary screen)
Cell system: Drosophila Kc cells
Reagents: long dsRNA against Drosophila genes, 0.5 µg dsRNA per well
Duration: 96 h (48 h knock-down, then 48 h drug)
Treatment: doxorubicin 5 µg/ml for 48 h, added 48 h after dsRNA
Measurement: 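Luminescent ATP counts per replicate, not normalised, reflecting viable cells after 48 h dsRNA knock-down followed by 48 h of 5 µg/ml doxorubicin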
Direction: raw ATP luminescence: higher = more viable cells, protection from doxorubicin
Active means: 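Active when both duplicate wells lie at least 2 SD above the plate mean and protection is confirmed by rescreening and independent dsRNAs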
The deposit covers about 19,000 reagents; this is an unselected part of those with a known target gene and a result. Of all reagents, 47 (0.25%) are marked active. 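Signals are raw, not normalised; exact z-scores behind calls not deposited; actives needed confirmation, so some wells reaching 2 SD are inactive.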 Names joined by + are all predicted targets of the reagent.

| gene | amplicon | raw ATP luminescence, replicate 1 | raw ATP luminescence, replicate 2 | outcome |
| --- | --- | --- | --- | --- |
| CG14892 | DRSC15014 | 74980 | 48570 | inactive |
| CG6567 + CG4565 | DRSC15599 | 64013 | 52060 | inactive |
| mtg | DRSC16256 | 50220 | 59213 | inactive |
| Kdm2 | DRSC14286 | 65653 | 43000 | inactive |
| inaE | DRSC19376 | 2.02e5 | 2.34e5 | inactive |
| inaE | DRSC19379 | 2.63e5 | 3.51e5 | inactive |
| inaE | DRSC19726 | 2.79e5 | 3.20e5 | inactive |
| beat-Ib | DRSC03490 | 69193 | 74677 | inactive |
| Rint1 | DRSC11010 | 40883 | 38717 | inactive |
| Cph | DRSC17507 | 1.66e5 | 1.91e5 | inactive |
| Cph | DRSC18434 | 28490 | 29610 | inactive |
| Nt5b | DRSC19977 | 3.63e5 | 3.16e5 | inactive |
| Nt5b | DRSC19978 | 3.97e5 | 3.55e5 | inactive |
| CG13855 | DRSC14705 | 56740 | 58900 | inactive |
| Paf-AHalpha | DRSC20267 | 3.65e5 | 3.11e5 | inactive |
| for | DRSC00195 | 1.70e5 | 1.63e5 | inactive |
| for | DRSC00818 | 1.05e5 | 76650 | inactive |
| CG11247 | DRSC11643 | 29810 | 25243 | inactive |
| ChT | DRSC16296 | 47127 | 50817 | inactive |
| Ube4B | DRSC03277 | 93877 | 72700 | inactive |
| Ir60a | DRSC04212 | 59777 | 65213 | inactive |
| CG9692 | DRSC11091 | 82113 | 70630 | inactive |
| CG9812 | DRSC04566 | 62000 | 50067 | inactive |
| PolH | DRSC11800 | 21020 | 19123 | inactive |
| CG1142 | DRSC12531 | 64867 | 54113 | inactive |
| orion | DRSC18213 | 35360 | 46580 | inactive |
| orion | DRSC18214 | 29400 | 38290 | inactive |
| Gdap1 | DRSC10437 | 1.08e5 | 89177 | inactive |
| Parp1 | DRSC07725 | 1.76e5 | 1.22e5 | inactive |
| elm | DRSC12309 | 63917 | 47880 | inactive |
| CG13293 | DRSC09967 | 88190 | 97580 | inactive |
| Sld5 | DRSC14892 | 45990 | 39410 | inactive |
| RhoGAP93B | DRSC15488 | 66890 | 65020 | inactive |
| DIP-theta | DRSC00885 | 3.06e5 | 2.68e5 | inactive |
| DIP-theta | DRSC02340 | 24047 | 23200 | inactive |
| DIP-theta | DRSC02341 | 22530 | 28480 | inactive |
| CG42306 + Gint3 | DRSC06934 | 56797 | 65210 | inactive |
| pths | DRSC03171 | 47807 | 45180 | inactive |
| Cbp53E | DRSC07356 | 69277 | 80107 | inactive |
| Smg5 | DRSC03124 | 71060 | 51837 | inactive |
| Ir85a | DRSC14382 | 51400 | 55590 | inactive |
| CG33158 | DRSC09708 | 1.91e5 | 2.18e5 | inactive |
| CG33158 | DRSC09709 | 62623 | 52493 | inactive |
| CG33158 | DRSC10438 | 62737 | 70387 | inactive |
| dysc | DRSC10273 | 58493 | 56980 | inactive |
| dysc | DRSC11040 | 64933 | 50743 | inactive |
| Deaf1 | DRSC11143 | 59123 | 53753 | inactive |
| CG34025 | DRSC08014 | 1.52e5 | 1.23e5 | inactive |
| Sema1b | DRSC07550 | 52573 | 53173 | inactive |
| lama | DRSC11361 | 29740 | 33567 | inactive |

Next part; the last 7 above are carried over.
| gene | amplicon | raw ATP luminescence, replicate 1 | raw ATP luminescence, replicate 2 | outcome |
| --- | --- | --- | --- | --- |
| CG33158 | DRSC10438 | 62737 | 70387 | inactive |
| dysc | DRSC10273 | 58493 | 56980 | inactive |
| dysc | DRSC11040 | 64933 | 50743 | inactive |
| Deaf1 | DRSC11143 | 59123 | 53753 | inactive |
| CG34025 | DRSC08014 | 1.52e5 | 1.23e5 | inactive |
| Sema1b | DRSC07550 | 52573 | 53173 | inactive |
| lama | DRSC11361 | 29740 | 33567 | inactive |
| Magi | DRSC04247 | 64887 | 66983 | inactive |
| Magi | DRSC04451 | 24700 | 32830 | inactive |
| Sfp26Ad | DRSC00904 | 2.44e5 | 2.68e5 | inactive |
| Scgbeta | DRSC15854 | 58757 | 41843 | inactive |
| Rim2 | DRSC00073 | 2.75e5 | 2.94e5 | inactive |
| Rim2 | DRSC00520 | 1.23e5 | 84767 | inactive |
| Iris | DRSC00663 | 96127 | 70170 | inactive |
| Myc | DRSC18762 | 21380 | 24990 | inactive |
| alpha-Est7 | DRSC12619 | 1.37e5 | 1.94e5 | inactive |
| CG8188 | DRSC20090 | 3.74e5 | 3.04e5 | inactive |
| CG31251 | DRSC16247 | 38000 | 28370 | inactive |
| caz | DRSC20317 | 1.73e5 | 1.76e5 | inactive |
| CG13829 | DRSC14679 | 59130 | 75180 | inactive |
| Nha2 | DRSC14689 | 73610 | 81580 | inactive |
| Nha2 | DRSC15619 | 29853 | 34647 | inactive |
| Nha2 | DRSC15623 | 68250 | 67650 | inactive |
| g | DRSC20335 | 3.45e5 | 2.70e5 | inactive |
| CG6357 | DRSC06979 | 64063 | 51367 | inactive |
| hry | DRSC11353 | 23423 | 25720 | inactive |
| CG6753 | DRSC16108 | 58553 | 61580 | inactive |
| Pkg21D | DRSC00772 | 1.15e5 | 70803 | inactive |
| CG31810 | DRSC01560 | 2.93e5 | 2.55e5 | inactive |
| CG17597 | DRSC02630 | 76687 | 80557 | inactive |
| CG10486 | DRSC09735 | 58390 | 83947 | inactive |
| Glg1 | DRSC11815 | 30197 | 24077 | inactive |
| Glg1 | DRSC11816 | 60173 | 63100 | inactive |
| Glg1 | DRSC11817 | 64800 | 54543 | inactive |
| Brd7-9 | DRSC03017 | 1.02e5 | 64957 | inactive |
| Spn28B | DRSC02982 | 24587 | 22520 | inactive |
| Gr93a | DRSC14593 | 60060 | 73020 | inactive |
| osy | DRSC14903 | 68830 | 67890 | inactive |
| osy | DRSC15979 | 60130 | 63800 | inactive |
| Crz | DRSC16615 | 77760 | 61020 | inactive |
| Pdp1 | DRSC08896 | 29827 | 29900 | inactive |
| Pdp1 | DRSC08897 | 21090 | 22557 | inactive |
| Pdp1 | DRSC11251 | 67360 | 71253 | inactive |
